Measured values from the supplement of paper PMC10849652.
Some of the results follow.

Amino acid sequences for entries named in this document (tags omitted). A change or cut given only in a name is not applied to a line headed by its entry.
UniProt Q96F07, whole entry, looked up: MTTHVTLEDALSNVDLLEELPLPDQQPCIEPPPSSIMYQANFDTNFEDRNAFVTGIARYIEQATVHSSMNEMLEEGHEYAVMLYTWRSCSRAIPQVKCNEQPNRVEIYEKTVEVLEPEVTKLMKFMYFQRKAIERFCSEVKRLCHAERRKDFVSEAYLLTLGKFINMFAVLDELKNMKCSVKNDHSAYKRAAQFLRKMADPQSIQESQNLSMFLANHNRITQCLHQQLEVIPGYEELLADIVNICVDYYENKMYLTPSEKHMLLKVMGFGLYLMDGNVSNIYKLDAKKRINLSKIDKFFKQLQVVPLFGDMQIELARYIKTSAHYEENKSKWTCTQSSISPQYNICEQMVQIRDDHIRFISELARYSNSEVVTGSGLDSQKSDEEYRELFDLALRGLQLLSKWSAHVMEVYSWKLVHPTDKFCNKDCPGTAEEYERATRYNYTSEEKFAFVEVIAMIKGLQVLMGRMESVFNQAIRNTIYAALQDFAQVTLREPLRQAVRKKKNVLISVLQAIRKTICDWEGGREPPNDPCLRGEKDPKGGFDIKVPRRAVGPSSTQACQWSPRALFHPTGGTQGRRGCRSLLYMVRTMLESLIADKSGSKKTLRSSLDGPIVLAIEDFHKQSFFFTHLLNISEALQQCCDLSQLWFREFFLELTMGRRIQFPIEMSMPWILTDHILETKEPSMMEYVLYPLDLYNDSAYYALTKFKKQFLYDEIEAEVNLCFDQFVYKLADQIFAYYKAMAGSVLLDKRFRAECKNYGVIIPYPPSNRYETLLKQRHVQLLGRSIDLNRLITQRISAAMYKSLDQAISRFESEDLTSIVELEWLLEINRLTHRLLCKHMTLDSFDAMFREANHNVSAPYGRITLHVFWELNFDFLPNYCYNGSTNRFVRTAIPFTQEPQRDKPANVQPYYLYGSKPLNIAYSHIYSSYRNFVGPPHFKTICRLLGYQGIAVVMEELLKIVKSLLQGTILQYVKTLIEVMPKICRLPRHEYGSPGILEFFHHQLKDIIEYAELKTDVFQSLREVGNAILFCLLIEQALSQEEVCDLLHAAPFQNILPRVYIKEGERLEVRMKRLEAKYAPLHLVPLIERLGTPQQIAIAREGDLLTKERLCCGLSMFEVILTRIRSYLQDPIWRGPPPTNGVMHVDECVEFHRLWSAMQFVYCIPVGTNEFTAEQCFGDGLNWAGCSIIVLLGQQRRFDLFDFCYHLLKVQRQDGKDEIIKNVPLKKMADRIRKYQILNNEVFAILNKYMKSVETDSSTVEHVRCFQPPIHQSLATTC
UniProt Q9NWV4: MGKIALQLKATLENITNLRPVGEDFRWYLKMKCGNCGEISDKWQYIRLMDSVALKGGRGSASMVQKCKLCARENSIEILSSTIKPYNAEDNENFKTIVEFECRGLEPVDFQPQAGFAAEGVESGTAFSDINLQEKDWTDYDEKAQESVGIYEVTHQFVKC
UniProt P99999: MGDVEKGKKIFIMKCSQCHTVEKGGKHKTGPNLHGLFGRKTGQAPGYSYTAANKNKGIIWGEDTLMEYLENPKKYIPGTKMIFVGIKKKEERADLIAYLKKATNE
UniProt Q6PI48: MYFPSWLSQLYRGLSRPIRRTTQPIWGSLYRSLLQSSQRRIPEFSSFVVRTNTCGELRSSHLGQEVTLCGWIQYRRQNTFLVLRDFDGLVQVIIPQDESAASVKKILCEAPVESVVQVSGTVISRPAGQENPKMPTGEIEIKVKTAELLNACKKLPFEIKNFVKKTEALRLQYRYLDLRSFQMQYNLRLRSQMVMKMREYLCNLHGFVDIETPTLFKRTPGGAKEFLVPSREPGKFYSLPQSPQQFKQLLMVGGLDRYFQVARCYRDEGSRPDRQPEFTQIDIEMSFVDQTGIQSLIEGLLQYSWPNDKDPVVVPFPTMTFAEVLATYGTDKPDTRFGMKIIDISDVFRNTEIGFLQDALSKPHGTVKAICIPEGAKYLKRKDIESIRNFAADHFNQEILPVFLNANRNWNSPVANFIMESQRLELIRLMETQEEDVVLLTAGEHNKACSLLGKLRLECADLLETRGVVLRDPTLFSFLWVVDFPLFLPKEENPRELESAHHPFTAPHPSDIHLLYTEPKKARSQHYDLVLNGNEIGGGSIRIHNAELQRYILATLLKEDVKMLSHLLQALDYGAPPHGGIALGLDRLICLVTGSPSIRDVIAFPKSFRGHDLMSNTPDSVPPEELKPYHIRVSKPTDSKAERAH
UniProt Q05048: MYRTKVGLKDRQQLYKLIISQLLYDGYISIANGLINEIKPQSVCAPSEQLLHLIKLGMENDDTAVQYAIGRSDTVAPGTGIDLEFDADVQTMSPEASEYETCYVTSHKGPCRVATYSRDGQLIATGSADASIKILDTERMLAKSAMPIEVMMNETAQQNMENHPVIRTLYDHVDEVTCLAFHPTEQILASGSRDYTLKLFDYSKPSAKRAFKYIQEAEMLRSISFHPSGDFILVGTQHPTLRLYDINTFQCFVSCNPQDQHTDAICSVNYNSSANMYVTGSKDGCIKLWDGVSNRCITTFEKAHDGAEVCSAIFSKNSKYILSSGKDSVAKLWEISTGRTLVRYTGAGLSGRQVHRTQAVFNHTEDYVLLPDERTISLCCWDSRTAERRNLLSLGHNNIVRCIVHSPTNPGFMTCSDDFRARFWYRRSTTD
UniProt P27707: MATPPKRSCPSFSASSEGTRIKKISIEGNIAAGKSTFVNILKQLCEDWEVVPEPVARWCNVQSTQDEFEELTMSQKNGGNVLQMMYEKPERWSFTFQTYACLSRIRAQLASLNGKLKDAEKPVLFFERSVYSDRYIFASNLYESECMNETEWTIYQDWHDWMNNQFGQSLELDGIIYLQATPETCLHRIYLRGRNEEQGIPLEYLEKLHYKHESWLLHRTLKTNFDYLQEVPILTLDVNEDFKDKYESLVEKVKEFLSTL
UniProt Q7L1T6: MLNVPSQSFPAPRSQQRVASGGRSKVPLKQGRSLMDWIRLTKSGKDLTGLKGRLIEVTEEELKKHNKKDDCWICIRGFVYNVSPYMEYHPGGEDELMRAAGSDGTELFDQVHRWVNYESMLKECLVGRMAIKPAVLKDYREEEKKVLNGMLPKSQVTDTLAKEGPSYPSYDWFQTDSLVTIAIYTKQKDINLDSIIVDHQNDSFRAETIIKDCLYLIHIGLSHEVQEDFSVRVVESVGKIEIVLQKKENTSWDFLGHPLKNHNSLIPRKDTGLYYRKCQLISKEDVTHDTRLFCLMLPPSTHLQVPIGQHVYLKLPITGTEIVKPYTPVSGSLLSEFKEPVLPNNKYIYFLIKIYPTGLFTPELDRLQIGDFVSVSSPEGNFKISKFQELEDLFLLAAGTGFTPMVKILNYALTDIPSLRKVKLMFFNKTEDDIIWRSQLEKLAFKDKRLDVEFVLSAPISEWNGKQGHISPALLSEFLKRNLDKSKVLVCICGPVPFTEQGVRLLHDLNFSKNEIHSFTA
UniProt Q8TEB1, whole entry, looked up: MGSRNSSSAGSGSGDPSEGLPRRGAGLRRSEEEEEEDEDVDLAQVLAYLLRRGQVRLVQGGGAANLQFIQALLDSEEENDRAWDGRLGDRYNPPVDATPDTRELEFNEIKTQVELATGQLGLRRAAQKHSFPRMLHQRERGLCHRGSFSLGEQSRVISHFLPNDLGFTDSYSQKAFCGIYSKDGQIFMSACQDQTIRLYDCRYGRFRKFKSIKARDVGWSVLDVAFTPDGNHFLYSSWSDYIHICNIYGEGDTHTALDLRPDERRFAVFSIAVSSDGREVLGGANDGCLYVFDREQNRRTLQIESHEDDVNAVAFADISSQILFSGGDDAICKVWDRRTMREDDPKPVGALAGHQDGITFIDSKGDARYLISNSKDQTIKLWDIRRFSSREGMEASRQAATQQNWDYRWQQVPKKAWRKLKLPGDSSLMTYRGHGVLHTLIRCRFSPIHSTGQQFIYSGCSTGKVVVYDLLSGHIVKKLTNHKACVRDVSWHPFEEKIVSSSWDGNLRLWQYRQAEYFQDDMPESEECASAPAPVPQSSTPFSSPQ
UniProt P26232: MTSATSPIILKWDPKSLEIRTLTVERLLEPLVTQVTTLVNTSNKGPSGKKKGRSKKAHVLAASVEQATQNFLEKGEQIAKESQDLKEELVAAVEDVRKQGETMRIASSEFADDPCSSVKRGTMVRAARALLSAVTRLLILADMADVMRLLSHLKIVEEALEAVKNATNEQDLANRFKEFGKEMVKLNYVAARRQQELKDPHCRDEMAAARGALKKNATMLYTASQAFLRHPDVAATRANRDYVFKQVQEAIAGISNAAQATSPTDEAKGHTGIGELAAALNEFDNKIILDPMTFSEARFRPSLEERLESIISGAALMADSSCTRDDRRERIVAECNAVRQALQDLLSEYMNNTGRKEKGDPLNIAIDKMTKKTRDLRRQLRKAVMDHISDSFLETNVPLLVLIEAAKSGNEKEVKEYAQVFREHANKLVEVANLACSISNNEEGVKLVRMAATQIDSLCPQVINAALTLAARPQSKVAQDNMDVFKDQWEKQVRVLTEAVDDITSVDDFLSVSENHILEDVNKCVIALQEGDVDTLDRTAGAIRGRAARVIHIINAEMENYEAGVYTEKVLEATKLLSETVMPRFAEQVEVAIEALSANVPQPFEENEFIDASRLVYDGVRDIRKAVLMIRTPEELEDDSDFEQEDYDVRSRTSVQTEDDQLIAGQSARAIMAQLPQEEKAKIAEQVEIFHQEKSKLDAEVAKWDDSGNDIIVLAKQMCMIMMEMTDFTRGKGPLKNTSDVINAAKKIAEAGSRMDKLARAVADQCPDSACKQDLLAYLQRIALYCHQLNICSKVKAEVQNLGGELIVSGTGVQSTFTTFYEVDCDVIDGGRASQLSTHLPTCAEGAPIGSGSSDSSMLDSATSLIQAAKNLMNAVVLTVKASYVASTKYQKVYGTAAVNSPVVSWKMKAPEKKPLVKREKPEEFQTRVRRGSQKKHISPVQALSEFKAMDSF
UniProt Q13616, whole entry, looked up: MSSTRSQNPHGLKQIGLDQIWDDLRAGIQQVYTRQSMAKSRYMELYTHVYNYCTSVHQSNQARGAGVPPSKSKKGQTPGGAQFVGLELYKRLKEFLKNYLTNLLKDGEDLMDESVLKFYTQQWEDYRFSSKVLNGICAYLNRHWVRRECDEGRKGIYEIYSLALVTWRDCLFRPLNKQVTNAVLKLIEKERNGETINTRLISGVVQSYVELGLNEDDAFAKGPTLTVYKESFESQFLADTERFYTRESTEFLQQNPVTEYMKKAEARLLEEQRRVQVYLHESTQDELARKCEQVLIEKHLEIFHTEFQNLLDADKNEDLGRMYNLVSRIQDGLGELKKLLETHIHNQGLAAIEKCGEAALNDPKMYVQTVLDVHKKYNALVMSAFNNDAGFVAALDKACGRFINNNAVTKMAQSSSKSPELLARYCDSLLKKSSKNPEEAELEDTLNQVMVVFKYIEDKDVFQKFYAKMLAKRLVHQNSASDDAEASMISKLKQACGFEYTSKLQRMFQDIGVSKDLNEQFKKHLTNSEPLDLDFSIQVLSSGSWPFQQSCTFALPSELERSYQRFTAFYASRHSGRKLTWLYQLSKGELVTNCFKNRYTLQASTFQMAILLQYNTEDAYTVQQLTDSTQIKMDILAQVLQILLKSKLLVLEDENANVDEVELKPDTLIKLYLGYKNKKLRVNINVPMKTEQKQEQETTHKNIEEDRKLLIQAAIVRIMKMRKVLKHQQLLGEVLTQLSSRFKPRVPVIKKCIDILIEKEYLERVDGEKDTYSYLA
UniProt Q6UW02: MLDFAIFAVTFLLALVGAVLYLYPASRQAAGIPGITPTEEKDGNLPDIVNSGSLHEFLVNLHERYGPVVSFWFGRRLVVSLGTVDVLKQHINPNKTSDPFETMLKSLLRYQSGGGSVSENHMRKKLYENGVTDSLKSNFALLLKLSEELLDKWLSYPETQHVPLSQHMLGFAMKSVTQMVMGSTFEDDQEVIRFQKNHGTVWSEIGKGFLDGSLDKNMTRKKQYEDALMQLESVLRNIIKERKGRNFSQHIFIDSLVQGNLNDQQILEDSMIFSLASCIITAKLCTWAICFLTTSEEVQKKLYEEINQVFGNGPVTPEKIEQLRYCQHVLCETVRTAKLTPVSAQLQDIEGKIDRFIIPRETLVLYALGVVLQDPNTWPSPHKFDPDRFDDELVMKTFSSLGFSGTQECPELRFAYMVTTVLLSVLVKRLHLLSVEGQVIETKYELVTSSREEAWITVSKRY
UniProt Q9NTM9: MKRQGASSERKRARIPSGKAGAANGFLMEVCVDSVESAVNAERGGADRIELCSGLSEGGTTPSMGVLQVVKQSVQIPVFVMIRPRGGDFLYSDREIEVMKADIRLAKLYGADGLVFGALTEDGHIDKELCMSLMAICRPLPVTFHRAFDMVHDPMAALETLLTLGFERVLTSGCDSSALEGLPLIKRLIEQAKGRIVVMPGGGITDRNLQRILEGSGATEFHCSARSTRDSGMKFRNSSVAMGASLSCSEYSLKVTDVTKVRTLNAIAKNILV
UniProt P0DMU9: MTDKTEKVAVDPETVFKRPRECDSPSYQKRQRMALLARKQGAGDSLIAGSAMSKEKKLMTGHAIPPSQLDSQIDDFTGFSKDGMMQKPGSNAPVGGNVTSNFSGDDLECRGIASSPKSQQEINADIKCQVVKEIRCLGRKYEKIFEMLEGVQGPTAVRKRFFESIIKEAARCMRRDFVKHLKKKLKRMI

compound: C1CN(CCC1(CC2=CC=C(C=C2)Cl)N)C3=NC=NC4=C3C=CN4; assay: log2 fold change, soluble protein after heating vs DMSO (PISA); higher = thermal stabilisation; K562 cells, 10 uM, 30 min; active = over 0.2 and 3.5 SD of the protein, either way, in both replicates (recomputed)
Method in brief: (§1)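 Thermal stability values are relative to control samples and come from duplicates. They are expressed as log2 fold changes. For measurement, K562 cells (2×10^6 cells/mL) received 10 μM compound for 30 min, and aliquots were heated for 3 min over 48°C-58°C, pooled, and extracted at 4°C in PBS with 0.5% NP-40. Soluble protein, the supernatant after 21,000xg for 90 min, was quantified by TMTpro 16plex LC-MS/MS with equalised channel sums.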

log2 fold change, inactive:
CTPS2 (UniProt Q9NRF8) 0.04
CWC25 (UniProt Q9NXE8) 0.053
CYFIP2 (UniProt Q96F07) 0.041
CZIB (UniProt Q9NWV4) -0.007
DARS (UniProt P14868) 0.015
CYCS (UniProt P99999) 0.025
DARS2 (UniProt Q6PI48) -0.021
DAP3 (UniProt P51398) -0.129
CTBP1 (UniProt Q13363) 0.057
DCTN2 isoform 2 (UniProt Q13561) -0.048
CSTF1 (UniProt Q05048) 0.006
DCAKD (UniProt Q8WVC6) 0.001
DCK (UniProt P27707) 0.057
CYB5R4 (UniProt Q7L1T6) 0.103
CWF19L1 (UniProt Q69YN2) 0.049
DCAF11 (UniProt Q8TEB1) -0.01
CSTF2T (UniProt Q9H0L4) -0.026
CTU2 (UniProt Q2VPK5) 0.021
CUL2 isoform 2 (UniProt Q13617) 0.02
CTNNA2 (UniProt P26232) -0.013
CYB5R2 (UniProt Q6BCY4) -0.015
DCPS (UniProt Q96C86) 0.06
CTIF isoform 2 (UniProt O43310) 0.025
CUL1 (UniProt Q13616) 0.038
CTCF (UniProt P49711) -0.092
CSTB (UniProt P04080) 0.013
CUL3 (UniProt Q13618) 0.035
CTH (UniProt P32929) 0.042
CUL4B (UniProt K4DI93) 0.033
CYP20A1 (UniProt Q6UW02) 0.046
DCTN6 (UniProt O00399) -0.027
CYHR1 (UniProt E9PJD7) 0.022
CUTC (UniProt Q9NTM9) 0.047
DCP1A (UniProt Q9NPI6) -0.22
CSPP1 (UniProt Q1MSJ5) 0.008
DCAF1 (UniProt Q9Y4B6) 0.028
CT45A10 (UniProt P0DMU9) -0.161
CYB5R1 (UniProt Q9UHQ9) 0.012
DCTN3 (UniProt O75935) -0.082

compound: C1COCCN1CCN2C3=CC=CC=C3N=C2NC(=O)C4=CC(=CC=C4)[N+](=O)[O-] [IRAK-1-4 Inhibitor I]; assay: as above
Method in brief: as §1

log2 fold change, inactive:
CTPS2 (UniProt Q9NRF8) 0.004
CWC25 (UniProt Q9NXE8) -0.209
CYFIP2 (UniProt Q96F07) 0
CZIB (UniProt Q9NWV4) 0.037
DARS (UniProt P14868) -0.005
CYCS (UniProt P99999) 0.095
DARS2 (UniProt Q6PI48) -0.019
DAP3 (UniProt P51398) -0.071
CTBP1 (UniProt Q13363) 0.047
DCTN2 isoform 2 (UniProt Q13561) -0.01
CSTF1 (UniProt Q05048) 0.012
DCAKD (UniProt Q8WVC6) 0.007
DCK (UniProt P27707) 0.09
CYB5R4 (UniProt Q7L1T6) 0.033
CWF19L1 (UniProt Q69YN2) 0.027
DCAF11 (UniProt Q8TEB1) 0.011
CSTF2T (UniProt Q9H0L4) 0.003
CTU2 (UniProt Q2VPK5) 0.093
CUL2 isoform 2 (UniProt Q13617) 0.061
CTNNA2 (UniProt P26232) 0
CYB5R2 (UniProt Q6BCY4) -0.009
DCPS (UniProt Q96C86) 0.048
CTIF isoform 2 (UniProt O43310) 0.106
CUL1 (UniProt Q13616) 0.014
CTCF (UniProt P49711) -0.123
CSTB (UniProt P04080) 0.066
CUL3 (UniProt Q13618) 0.051
CTH (UniProt P32929) 0.028
CUL4B (UniProt K4DI93) 0.028
CYP20A1 (UniProt Q6UW02) 0.031
DCTN6 (UniProt O00399) 0.027
CYHR1 (UniProt E9PJD7) -0.005
CUTC (UniProt Q9NTM9) 0.014
DCP1A (UniProt Q9NPI6) -0.113
CSPP1 (UniProt Q1MSJ5) 0.052
DCAF1 (UniProt Q9Y4B6) 0.001
CT45A10 (UniProt P0DMU9) -0.091
CYB5R1 (UniProt Q9UHQ9) 0.025
DCTN3 (UniProt O75935) -0.082
